Measured values taken from article PMC9881170.
The exact form of at least one protein or probe is not confirmed. For part of these data: A negative result means that nothing was seen under these conditions.

Legend:
Assay in all cases: sucrose gradient co-sedimentation, Cy3 fluorescence
[1] = system: 28S mitoribosomal small subunit + mtIF2 + mtIF3; details: + fMet-tRNAfMet; 200 nM 55S or 28S, 240 nM mtIF2, 240 nM mtIF3, 240 nM fMet-tRNAfMet, 400 nM mRNA; 37 C 30 min (then ice 15 min for mRNA binding); filter wash with 20 mM Mg2+; native protein; label: 3' Cy3
[2] = system: 55S mitoribosome (re-associated) + mtIF2 + mtIF3; details: without fMet-tRNAfMet; 200 nM 55S or 28S, 240 nM mtIF2, 240 nM mtIF3, 240 nM fMet-tRNAfMet, 400 nM mRNA; 37 C 30 min (then ice 15 min for mRNA binding); filter wash with 20 mM Mg2+; native protein; label: 3' Cy3
[3] = system: 55S mitoribosome, Cy5-labeled + mtIF2 + mtIF3; details: + fMet-tRNAfMet, also FCS and single-molecule Cy3/Cy5 coincidence 43 +/- 4%; 200 nM 55S or 28S, 240 nM mtIF2, 240 nM mtIF3, 240 nM fMet-tRNAfMet, 400 nM mRNA; 37 C 30 min (then ice 15 min for mRNA binding); filter wash with 20 mM Mg2+; native protein; label: 3' Cy3

AUGGCACAUGCAGCGCAAGUAGGUCUACAA [MTCO2 mRNA first 30 nt]
binding result [1]: no binding
binding result [2]: no binding
binding result [3]: binds
